# Data as given in PubChem BioAssay AID686943 (Drosophila RNAi Screening Center, 2013).
# Purpose: 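Fly genes whose loss alters ERK activation after insulin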 (primary screen)
# System: Drosophila S2R+ haemocyte-like cells expressing YFP-tagged ERK (Rolled)
# Knock-down reagent: long dsRNA against Drosophila genes
# Treatment: insulin stimulation versus unstimulated cells; dose and duration not given
# Read-out: 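Antibody staining for doubly phosphorylated ERK divided by ERK-YFP signal, as plate z-scores, in insulin-treated and untreated cells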
# Direction: replicate 1, z-score of dpERK with insulin and replicate 2, z-score of dpERK with insulin: higher = more active ERK per ERK-YFP after insulin; replicate 1, z-score of dpERK under basal conditions: higher = more basal active ERK per ERK-YFP; replicate 1, z-score of ERK-YFP with insulin: higher = more YFP-tagged ERK signal
# The screen tested about 23,000 reagents; below is a random part of those with a known target gene and a result. 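Extra replicates exist only for a retested subset of genes; insulin dose and duration not given; both raised and lowered dpERK matter.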 A plus sign joins genes that one reagent is predicted to hit. Reagent sequences are not shown. Not given: the amount of reagent, the time to read-out.
Target gene,DRSC id,"replicate 1, z-score of dpERK with insulin","replicate 2, z-score of dpERK with insulin","replicate 1, z-score of dpERK under basal conditions","replicate 1, z-score of ERK-YFP with insulin"
l(2)efl (lethal (2) essential for life),DRSC04698,0.36,-0.47,1.45,-0.53
Trim9 (Tripartite motif containing 9),DRSC02242,-0.28,0.16,-0.46,1.01
CG31663,DRSC00078,0.5,0.85,0.17,-0.41
CG31663,DRSC00389,0.19,0.13,0.14,0.92
CG31663,DRSC00390,0.46,1.31,0.23,0.81
CG31663,DRSC00393,-0.39,0.47,0.71,-0.55
Spn42De (Serpin 42De),DRSC05011,-0.42,0.3,-0.44,-0.1
CG3349,DRSC10359,-0.84,-0.01,-0.16,0.51
Pcyt1 (Phosphocholine cytidylyltransferase 1),DRSC08157,-1.84,-1.48,-1.72,0.6
Dic3,DRSC06058,0.55,0.07,0.35,0.06
CG7366,DRSC10825,0.65,0.36,0.49,-0.01
CG15529,DRSC15066,0.39,-0.19,-0.08,0.34
CG30431,DRSC04902,0.02,0.65,-0.02,0.21
CG30431,DRSC04904,0.34,-0.38,0.94,-0.16
CG31345,DRSC14193,1.32,1.11,1.14,-0.58
CG31345,DRSC14847,1.18,-0.24,-0.31,-0.77
sage (salivary gland-expressed bHLH),DRSC14580,0.07,0.86,-0.52,0.6
CG2930,DRSC17730,-0.85,0.2,-0.89,-0.18
sl (small wing),DRSC20377,1.03,1.36,2.14,-2.06
sl (small wing),DRSC21782,-0.57,-0.98,-0.14,0.87
CG31457,DRSC22935,0.16,-1.14,0.37,-0.14
CG31406,DRSC12777,0.49,-0.34,-0.71,-0.57
RpL28 + snoRNA:Or-CD12,DRSC08293,-1.46,-0.56,-2.45,-2.15

A stretch taken from the entries so far:
Target gene,DRSC id,"replicate 1, z-score of dpERK with insulin","replicate 2, z-score of dpERK with insulin","replicate 1, z-score of dpERK under basal conditions","replicate 1, z-score of ERK-YFP with insulin"
CG2930,DRSC17730,-0.85,0.2,-0.89,-0.18
sl (small wing),DRSC20377,1.03,1.36,2.14,-2.06
sl (small wing),DRSC21782,-0.57,-0.98,-0.14,0.87
CG31457,DRSC22935,0.16,-1.14,0.37,-0.14
